Results on 31 compounds are retold here after the supplement of paper PMC12889115.

Each structure is given as a SMILES string. Some of the results follow. Values are raw readings; no control value is given beside them.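 First-pass screen: polymyxin B was added at a level that permeabilizes the Salmonella outer membrane while sparing the inner membrane. DMSO wells, with and without polymyxin B, defined maximum growth. Because plates differed from one another, each plate's data were ranked separately and the compounds with the lowest OD600 were carried forward as hits.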

The subject of this test is Salmonella enterica serovar Typhimurium SL1344. Nature of the test: bacterial growth OD600 after 18 h with compound and polymyxin B; higher = more bacterial growth (less inhibition). The following applies: 50 µM, Mueller-Hinton broth.

As to `CCN(CC1CCCN(CCc2cccc(OC)c2)C1)C(=O)c1ccc(COC)o1` (stereo unspecified), the “bacterial growth OD600” value (polymyxin B 1 µg/mL) worked out at 0.8. Turning to `COc1ccc(NC(=O)CCC2CCCN(c3ccccn3)C2)c(C)c1` (stereo unspecified), under “polymyxin B 1 µg/mL”, the “bacterial growth OD600” value stood at 0.918.

Consider `O=C(CCC1CCN(C(=O)c2ccccc2)CC1)N1CCC(Cc2ccccc2)CC1`, for which the “bacterial growth OD600” value (polymyxin B 1 µg/mL) stood at 0.79. `COc1ccc2c(C)nc(N3CCCC(C(=O)NCc4cccc(OC)c4OC)C3)nc2c1` (stereo unspecified): for the setting “polymyxin B 0.75 µg/mL”, the “bacterial growth OD600” value was 0.849. Same read-out and setting: the same measure for `CC(=O)N1CCC(NCc2cccnc2Oc2ccccc2)CC1`: 0.818; for `O=C(c1ccc2c(c1)OCO2)N1CCC(C2(Cc3ccc(F)cc3)NC(=O)N(CC3CC3)C2=O)CC1` (stereo unspecified): 0.839. As for `c1cnc(N2CCC(C3CCN(CCCn4cccn4)C3)CC2)nc1` (stereo unspecified), the “bacterial growth OD600” value (polymyxin B 0.75 µg/mL) was 0.795. Turning to `O=C(COc1ccccc1)NC1CC(=O)N(Cc2ccccc2C(F)(F)F)C1` (stereo unspecified), the “bacterial growth OD600” value (polymyxin B 1 µg/mL) was 0.891. Same read-out and setting: for `O=C(NCC(F)(F)F)c1cc(Cn2ccc3ccccc32)[nH]n1` the value was 0.894.

With `Cc1nc(N2CCCC(NCCc3cccs3)CC2)nc2ccc(F)cc12` (stereo unspecified), under “polymyxin B 0.75 µg/mL”, the “bacterial growth OD600” value came out at 0.568. On the same count and under the same terms, for `COC(C(=O)N1CCC(C(Cc2ccccc2)N(C)C(=O)c2ccoc2C)CC1)c1ccccc1` (stereo unspecified) the value was 0.836; for `COc1ccc(CC(=O)NCC2CC(Cc3ccc(F)cc3)=NO2)cc1` (stereo unspecified), 0.866. As for `O=C(c1cc[n+]([O-])cc1)N(CC1CCN(C2Cc3ccccc3C2)CC1)CC1CCCO1` (stereo unspecified), where the note is “polymyxin B 1 µg/mL”, the “bacterial growth OD600” value was 1. For the compound `O=C(CCCc1ccccc1)Nc1ccnn1C1CCN(Cc2cc[nH]n2)CC1`, where the note is “polymyxin B 0.75 µg/mL”, the “bacterial growth OD600” value came out at 0.78. Same read-out and setting: the same measure for `O=C(NCCN1CCOCC1)c1ccc(N2CCC(N3CCCC(c4ccccc4)CC3)CC2)cc1` (stereo unspecified): 0.83; for `Cc1nn(C)c(C)c1CCC(=O)NCc1nc(-c2ccc(NC(=O)Cc3ccccc3)cc2)oc1C`: 0.89; for `O=C(NCCc1cnccn1)C1CCN(c2nc(-c3ccccc3)nc3c2CCC3)CC1`: 0.818.

With `O=C(NCCn1cccn1)c1cc(Cn2cnc3ccccc32)on1`, under “polymyxin B 1 µg/mL”, the “bacterial growth OD600” value stood at 1.29.

`Cc1cc(C)nc(N2C[C@H]3OC(=O)N(CCN4CCCCC4)[C@H]3C2)n1`: where the note is “polymyxin B 1 µg/mL”, the “bacterial growth OD600” value was 1.2. `CCC(CC)NC(C)c1cnn(-c2ccc(F)cc2F)c1C` (stereo unspecified): the “bacterial growth OD600” value (polymyxin B 1 µg/mL) amounted to 1.01. On the same count and under the same terms, the same measure for `CN(CCc1nc2ccccc2[nH]1)C(=O)c1cn(Cc2ccccc2Cl)nn1`: 0.875; for `C#CCN(CC=C)C(=O)C1CCC(=O)N(CCc2ccc(OC)cc2)C1` (stereo unspecified): 0.943. For `COc1ccc(CNC(=O)CCC2(Cc3ccc(F)c(OC)c3)CCC(=O)N2)cc1` (stereo unspecified), under “polymyxin B 0.75 µg/mL”, the “bacterial growth OD600” value came out at 0.878. On the same count and under the same terms, for `Cc1cccc(CNCC2(O)CCCN(Cc3cccc(F)c3F)C2=O)c1` (stereo unspecified) the value was 0.889. On the same count and under the same terms, the same measure for `COc1cccc(CC2=NOC(C(=O)N3CCC(C(O)(c4ccccc4)c4ccccc4)CC3)C2)c1` (stereo unspecified): 0.668. As for `CCCN1CCC(NC2CCCc3nc(N(C)C)ncc32)CC1` (stereo unspecified), the “bacterial growth OD600” value (polymyxin B 1 µg/mL) amounted to 0.996. With `CCc1ccc(CN(C)C(=O)CCC2(Cc3ccc(OC)cc3F)CCC(=O)N2)cc1` (stereo unspecified), under “polymyxin B 0.75 µg/mL”, the “bacterial growth OD600” value worked out at 1. `COc1ccc(CN2CCN(Cc3cnc(C)s3)CC2CCO)c(C)c1C` (stereo unspecified): the “bacterial growth OD600” value (polymyxin B 1 µg/mL) was 0.945. Take `O=C(CC1(c2ccccc2)CC(=O)N(Cc2cccs2)C1=O)N1CC[C@@H]2CCCC[C@H]2C1` (stereo partly specified): under “polymyxin B 0.75 µg/mL”, the “bacterial growth OD600” value is 0.579. On the same count and under the same terms, for `CC(=O)N[C@@H](C)C(=O)NCc1cccnc1N(C)Cc1ccccc1` the value was 0.94. Consider `CC(=O)c1cccc(OCc2cc(C(=O)N3CCCC3)n[nH]2)c1`, for which the “bacterial growth OD600” value (polymyxin B 1 µg/mL) was 0.959.
